PubChem BioAssay AID1259254 | NCATS | 2017
Test: 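Genome-wide screen for genes that prevent DNA re-replication in cancer cells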 (primary screen). System: human HCT116 colorectal cancer cells. Reagents: single siRNA against human genes. Time to read-out: 3 days. Read-out: 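Imaged Hoechst DNA stain sorts each cell into a cycle phase by DNA amount; per plate, G2 fraction set to 0% for non-targeting and 100% for GMNN siRNA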. Direction: G2 robust z-score and G2 cells, % of GMNN control: higher = more G2 cells, more excess DNA replication. Call rule: 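An siRNA counts as active if its G2 robust z-score lies at least 5 MADs above the screen median; here such calls match roughly 38% of GMNN control or more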.
Shown is one part, drawn at random, of about 59,000 deposited reagents. Of all reagents, about 1,550 (2.6%) are marked active. 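G2 share is only a proxy for re-replication; each gene was hit by three separate siRNAs, and active genes were retested.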 A number with no mark means an inactive call. The numbers tell different reagents against one gene apart. Further read-outs or replicates are left out here. The record does not give: the amount of reagent.

PCDH19 (protocadherin 19) #1 gave G2 robust z-score -0.805; G2 cells, % of GMNN control -2.7.
Against PCDH19 (protocadherin 19) #2, the entry reads G2 robust z-score 2.43; G2 cells, % of GMNN control 20.1.
After knock-down of PCDH19 (protocadherin 19) #3, the record shows G2 robust z-score 0.814; G2 cells, % of GMNN control 8.69.
Silencing of ASPA (aspartoacylase) #1 resulted in: G2 robust z-score 0.217; G2 cells, % of GMNN control 4.49.
Against ASPA (aspartoacylase) #2, the entry reads G2 robust z-score 0.98; G2 cells, % of GMNN control 9.86.
For ASPA (aspartoacylase) #3 the deposit lists G2 robust z-score -1.05; G2 cells, % of GMNN control -4.4.

In a second layout: results already given.
Target gene	reagent no.	G2 robust z-score	G2 cells, % of GMNN control
ASPA (aspartoacylase)	2	0.98	9.86
ASPA (aspartoacylase)	3	-1.05	-4.4

Continued:
For ARL14EPL (ARF like GTPase 14 effector protein like) #1 the deposit lists G2 robust z-score -0.233; G2 cells, % of GMNN control 1.33.
Knock-down of ARL14EPL (ARF like GTPase 14 effector protein like) #2 came out at: G2 robust z-score 4.66; G2 cells, % of GMNN control 35.8.
For ARL14EPL (ARF like GTPase 14 effector protein like) #3, the entry reads G2 robust z-score 6.13 (active); G2 cells, % of GMNN control 46.1.
With knock-down of FAM3D (FAM3 metabolism regulating signaling molecule D) #1, the record shows G2 robust z-score -0.526; G2 cells, % of GMNN control -0.736.
For FAM3D (FAM3 metabolism regulating signaling molecule D) #2, the values are G2 robust z-score -0.553; G2 cells, % of GMNN control -0.926.
FAM3D (FAM3 metabolism regulating signaling molecule D) #3 showed G2 robust z-score 2.8; G2 cells, % of GMNN control 22.6.
